From the supplement of paper PMC10735217 come the findings set out here.

Several values for one entry are separate records, joined by “and”; a condition that tells them apart may be missing. Equal values may be shown once. Where a name gives a salt, the structure may show the parent alone. The list shows a part of the results. Single values are uncertain here, since repeats match poorly.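 In a drug-repurposing library screen, luminescence reads luciferase driven by eight TEAD-binding elements, stably integrated into human kidney-derived cells. Compounds scoring over five robust Z scores above the plate mean are called hits.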

The experiment deals with HEK293A TEAD-LUC reporter. The experiment can be described thus: TEAD-luciferase reporter activity (YAP activation), robust Z score vs plate; higher = stronger YAP/TEAD activation. The note with it: 24 h. For orientation: A reporter such as luciferase makes a cellular process visible.

As to `O=C(NCN1CCOCC1)c1cnccn1`, the TEAD-luciferase reporter activity was inactive: -0.691 (compound concentration: 200 nM), inactive: -1.01 (compound concentration: 2 uM) and inactive: -0.348 (compound concentration: 10 uM).

In the case of `CCO[C@H](CN)Cc1ccc(OCc2nc(-c3ccccc3)oc2C)cc1`, the TEAD-luciferase reporter activity is inactive: -0.213 (compound concentration: 200 nM), inactive: -0.361 (compound concentration: 2 uM) and inactive: 0.876 (compound concentration: 10 uM).

`CC(C)(/C=N/OCC(=O)O)Cc1c(SC(C)(C)C)c2cc(OCc3ccc4ccccc4n3)ccc2n1Cc1ccc(Cl)cc1`: the TEAD-luciferase reporter activity was inactive: -1.07 (compound concentration: 200 nM), inactive: -1.74 (compound concentration: 2 uM) and active: 6.75 (compound concentration: 10 uM).

For the molecule `Cc1nc2n(c(=O)c1CCN1CCC(C(=O)c3ccc(F)cc3)CC1)CCS2`, the TEAD-luciferase reporter activity by setting is: (compound concentration: 200 nM) inactive: 0.389; (compound concentration: 2 uM) inactive: 0.381; (compound concentration: 10 uM) inactive: -0.921.

`CCCCC[C@H](O)/C=C/C=C\C/C=C\C/C=C\CCCC(=O)O`: the TEAD-luciferase reporter activity was inactive: -0.988 (compound concentration: 200 nM) and inactive: 0.406 (compound concentration: 10 uM).

As for `CCCCC[C@H](O)/C=C/C=C\C/C=C\C/C=C\CCCC(=O)O` [Icomucret], for the setting “compound concentration: 2 uM”, the TEAD-luciferase reporter activity is inactive: -1.04.

With `C(=N\NC1=NCCN1)/c1c2ccccc2c(/C=N/NC2=NCCN2)c2ccccc12` [bisantrene HCl], the TEAD-luciferase reporter activity (compound concentration: 2 uM) was inactive: 4.95.

Regarding `C(=N\NC1=NCCN1)/c1c2ccccc2c(/C=N/NC2=NCCN2)c2ccccc12` [bisantrene HCl, Update Pharma], the TEAD-luciferase reporter activity is inactive: -0.69 (compound concentration: 200 nM) and inactive: 4.17 (compound concentration: 10 uM).

Turning to `CN(Cc1ccc(F)cc1)C1CCc2ccccc21` (centres undefined), the TEAD-luciferase reporter activity was inactive: -2.65 (compound concentration: 200 nM) and inactive: 0.767 (compound concentration: 10 uM).

`Clc1ccc([C@]2(Cn3cncn3)O[C@H]2c2ccc(Cl)cc2Cl)cc1`: the TEAD-luciferase reporter activity by setting is: (compound concentration: 200 nM) inactive: -0.404; (compound concentration: 2 uM) inactive: -0.0356; (compound concentration: 10 uM) inactive: 1.53.

For the molecule `CCC(=O)N1Cc2ccccc2CC2(CCCCN2C)C1` (centres undefined), the TEAD-luciferase reporter activity by setting is: (compound concentration: 200 nM) inactive: 2.79; (compound concentration: 10 uM) inactive: 1.94.

`O=C(NCCc1ccccc1)c1c[nH]c2ncccc12`: the TEAD-luciferase reporter activity is, setting by setting: (compound concentration: 200 nM) inactive: 0.958; (compound concentration: 10 uM) inactive: 1.37.

On to `C/C(=N\O)c1nc([C@@H](O)[C@H](O)[C@H](O)CO)c[nH]1`, for which the TEAD-luciferase reporter activity runs as follows: (compound concentration: 200 nM) inactive: 4.06; (compound concentration: 2 uM) inactive: -0.372; (compound concentration: 10 uM) inactive: -0.493.

As to `CC(C)(C)c1cc(/C=C2\SC(N)=NC2=O)cc(C(C)(C)C)c1O`, the TEAD-luciferase reporter activity is, setting by setting: (compound concentration: 200 nM) inactive: -1.47; (compound concentration: 2 uM) inactive: -1.34; (compound concentration: 10 uM) inactive: -0.642.

As to `O=C(NC1CCN(c2nc3ncccc3o2)CC1)c1ccccc1`, the TEAD-luciferase reporter activity is inactive: 0.572 (compound concentration: 200 nM) and inactive: -0.00848 (compound concentration: 10 uM).

`O=c1c2c([nH]c3ccccc13)C(c1ccc3c(c1)CCO3)N(c1ccccn1)C2` (centres undefined): the TEAD-luciferase reporter activity was inactive: -1.31 and inactive: -1.5 (compound concentration: 200 nM); inactive: -0.486 and inactive: -0.711 (compound concentration: 2 uM); inactive: -1.58 and inactive: 1.86 (compound concentration: 10 uM).

With `CC(c1cccs1)N(C)CC1CCCCC1` (centres undefined), the TEAD-luciferase reporter activity is inactive: -1.07 (compound concentration: 200 nM) and inactive: 0.936 (compound concentration: 10 uM).

Turning to `Fc1ccc2c(c1)OCc1ccccc1C2N1CCN(C/C=C/c2ccccc2)CC1` (centres undefined), the TEAD-luciferase reporter activity (compound concentration: 200 nM) was inactive: -0.54, the TEAD-luciferase reporter activity (compound concentration: 2 uM) was inactive: 0.0752 and the TEAD-luciferase reporter activity (compound concentration: 10 uM) is inactive: 1.5.

As for `C1=Cc2cccc(OCC3CNCCO3)c2C1` (centres undefined), the TEAD-luciferase reporter activity reads like this: (compound concentration: 200 nM) inactive: -1.08; (compound concentration: 2 uM) inactive: -1.09; (compound concentration: 10 uM) inactive: 2.12.

With `NC(=O)NS(=O)(=O)c1ccc(N)cc1`, the TEAD-luciferase reporter activity reads like this: (compound concentration: 200 nM) inactive: 1.09; (compound concentration: 2 uM) inactive: -0.665; (compound concentration: 10 uM) inactive: -0.312.

As to `C/C(=C\C(=O)OCCCCCCCCC(=O)O)C[C@@H]1OC[C@H](C[C@@H]2O[C@H]2[C@@H](C)[C@H](C)O)[C@@H](O)[C@H]1O` [Mupirocin], the TEAD-luciferase reporter activity was active: 7.84 (compound concentration: 200 nM), inactive: -1.9 (compound concentration: 2 uM) and inactive: 0.0893 (compound concentration: 10 uM).

Regarding `CC(=O)N1CCCN(C(=O)c2cnc3cc(C)nn3c2)CC1`, the TEAD-luciferase reporter activity (compound concentration: 200 nM) was inactive: -2.63 and the TEAD-luciferase reporter activity (compound concentration: 10 uM) is inactive: 0.298.

Take `OC(CI)CI`: the TEAD-luciferase reporter activity is, setting by setting: (compound concentration: 200 nM) inactive: -0.0835; (compound concentration: 2 uM) inactive: -0.644; (compound concentration: 10 uM) inactive: -0.732.

For the molecule `O=C1CC[C@H](C(=O)N[C@@H]2C[C@H]2c2ccccc2)N1`, the TEAD-luciferase reporter activity (compound concentration: 200 nM) was inactive: -1.37, the TEAD-luciferase reporter activity (compound concentration: 2 uM) was inactive: -0.275 and the TEAD-luciferase reporter activity (compound concentration: 10 uM) was inactive: -1.13.

Consider `CCN1CCC[C@H]1CNC(=O)c1cc(S(N)(=O)=O)ccc1OC`, for which the TEAD-luciferase reporter activity is, setting by setting: (compound concentration: 200 nM) inactive: 0.102; (compound concentration: 10 uM) inactive: 1.22.

Regarding `CCN1CCC[C@H]1CNC(=O)c1cc(S(N)(=O)=O)ccc1OC` [levosulpiride], the TEAD-luciferase reporter activity (compound concentration: 2 uM) was inactive: -1.03.

With `CC1(C)OC(c2ccc(S(N)(=O)=O)cc2)=C(c2cccc(F)c2)C1=O` [Polmacoxib], the TEAD-luciferase reporter activity reads like this: (compound concentration: 200 nM) inactive: 0.206; (compound concentration: 2 uM) inactive: 0.503; (compound concentration: 10 uM) inactive: 0.782.

For the molecule `CN(C)[C@@H]1C(O)=C(C(N)=O)C(=O)[C@@]2(O)C(O)=C3C(=O)c4c(O)ccc(Cl)c4[C@@](C)(O)C3C[C@@H]12` (some centres undefined) [Chlortetracycline HCl], the TEAD-luciferase reporter activity was inactive: -0.0898 (compound concentration: 200 nM), inactive: -0.0875 (compound concentration: 2 uM) and inactive: 2.28 (compound concentration: 10 uM).
